Experimental findings from publication PMC10980718 are described below.

Chains of the proteins cited; added tags and fusions are not shown.
UniProt Q86WV6: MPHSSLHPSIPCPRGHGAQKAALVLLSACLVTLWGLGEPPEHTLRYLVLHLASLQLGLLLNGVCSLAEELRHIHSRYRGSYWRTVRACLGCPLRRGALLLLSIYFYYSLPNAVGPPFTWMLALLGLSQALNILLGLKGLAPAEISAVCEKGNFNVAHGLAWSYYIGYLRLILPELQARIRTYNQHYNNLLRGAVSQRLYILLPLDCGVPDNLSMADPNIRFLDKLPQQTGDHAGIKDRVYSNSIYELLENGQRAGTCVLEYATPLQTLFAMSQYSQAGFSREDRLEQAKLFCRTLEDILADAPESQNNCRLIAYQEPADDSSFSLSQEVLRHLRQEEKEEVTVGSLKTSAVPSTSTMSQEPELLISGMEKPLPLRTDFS

These are yes or no findings as the source states them, for the method shown. In cells and extracts the contact can be indirect. Some binding calls cover weakened binding; strength is not graded here.

The test concerns the target STING-ER Exit Protein (STEEP) (human (endogenous in THP1)) (UniProt Q9H5V9). The test can be described thus: co-IP; endogenous STING or STEEP immunoprecipitated from THP1 cells pre-treated with mock or MβCD (2 mM) and then stimulated with cGAMP (50 µg/ml); IgG from sheep/rabbit serum as negative controls; immunoblot. (Immunoblotting shows a protein as a band on a membrane.)

“STING (Stimulator of interferon genes) (from UniProt Q86WV6 1-379)”: the binding entry is “binds”.
